Experimental data from paper PMC7475098.
Results are given in words; binding and its absence hold for the method and conditions named. For some of these results: In cells and extracts the contact can be indirect. Some results given as binding are weak or reduced against the parent protein; the word gives no strength. For some of these results: Where a sequence is shown, tags or fusion partners need not be part of it.

Amino acid sequences for entries named in this document (tags omitted).
UniProt Q6ETX0: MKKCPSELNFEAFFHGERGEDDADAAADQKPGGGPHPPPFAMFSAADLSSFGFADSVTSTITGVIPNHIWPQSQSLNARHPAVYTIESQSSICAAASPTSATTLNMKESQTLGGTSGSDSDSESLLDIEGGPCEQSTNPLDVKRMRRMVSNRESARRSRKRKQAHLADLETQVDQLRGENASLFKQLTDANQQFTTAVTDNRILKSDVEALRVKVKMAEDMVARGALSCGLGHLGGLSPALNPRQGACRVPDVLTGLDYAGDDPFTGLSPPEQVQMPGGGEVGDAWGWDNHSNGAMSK

Experiments:
[1] = biological target: T1, OsSAPK9–nYFP (rice (Oryza sativa L.)) (UniProt Q75V57); experiment: split reporter; BiFC with N- and C-terminal eYFP fragments; agroinfiltrated Nicotiana benthamiana leaves; confocal microscopy two days after incubation
T1 sequence: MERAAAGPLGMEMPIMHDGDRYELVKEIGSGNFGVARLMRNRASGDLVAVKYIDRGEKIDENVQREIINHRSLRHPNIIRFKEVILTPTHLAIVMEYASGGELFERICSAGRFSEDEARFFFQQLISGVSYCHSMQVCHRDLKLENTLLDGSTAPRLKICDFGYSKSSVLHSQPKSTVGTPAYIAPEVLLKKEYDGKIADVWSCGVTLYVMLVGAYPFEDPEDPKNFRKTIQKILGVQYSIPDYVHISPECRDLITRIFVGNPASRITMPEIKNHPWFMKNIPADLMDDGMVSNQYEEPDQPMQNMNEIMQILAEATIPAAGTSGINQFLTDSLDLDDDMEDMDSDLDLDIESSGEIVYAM

[2] = biological target: T2, OsSAPK8 (pGBKT7-OsSAPK8) (rice (Oryza sativa L.)) (UniProt Q7Y0B9); experiment: two-hybrid; yeast strain Y2HGold; pGBKT7-OsSAPK8/9/10 + pGADT7-OsbZIP20; growth on SD/Leu-/Trp-/His+2 mM 3-AT at 30 °C for 2–3 d
T2 sequence: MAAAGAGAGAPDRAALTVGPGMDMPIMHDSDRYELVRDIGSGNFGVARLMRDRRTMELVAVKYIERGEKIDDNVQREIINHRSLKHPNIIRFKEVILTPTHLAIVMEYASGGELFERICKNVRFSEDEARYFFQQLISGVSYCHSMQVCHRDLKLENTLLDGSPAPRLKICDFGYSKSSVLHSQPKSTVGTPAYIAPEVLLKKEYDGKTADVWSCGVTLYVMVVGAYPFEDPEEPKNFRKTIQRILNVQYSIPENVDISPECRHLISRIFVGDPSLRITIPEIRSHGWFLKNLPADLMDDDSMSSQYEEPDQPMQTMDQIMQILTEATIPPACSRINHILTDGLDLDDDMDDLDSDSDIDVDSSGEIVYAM

[3] = biological target: T3, OsSAPK10 (pGBKT7-OsSAPK10) (rice (Oryza sativa L.)) (UniProt Q75H77); experiment: as above
T3 sequence: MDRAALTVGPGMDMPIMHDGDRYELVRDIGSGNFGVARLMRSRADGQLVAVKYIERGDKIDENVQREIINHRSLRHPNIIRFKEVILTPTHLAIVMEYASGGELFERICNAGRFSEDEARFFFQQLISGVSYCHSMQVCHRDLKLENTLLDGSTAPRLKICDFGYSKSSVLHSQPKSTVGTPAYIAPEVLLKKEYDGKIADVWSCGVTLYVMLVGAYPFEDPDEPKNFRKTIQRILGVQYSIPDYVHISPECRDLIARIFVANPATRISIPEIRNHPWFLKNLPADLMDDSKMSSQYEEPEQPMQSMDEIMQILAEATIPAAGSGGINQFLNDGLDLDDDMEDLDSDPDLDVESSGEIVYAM

[4] = biological target: T4, OsSAPK9 (pGBKT7-OsSAPK9) (rice (Oryza sativa L.)) (UniProt Q75V57); experiment: as above
T4 sequence: T1 sequence

| binding [1] | binding [2] | binding [3] | binding [4] | Substance |
| --- | --- | --- | --- | --- |
| binds |  |  |  | cYFP–OsbZIP20 (from UniProt Q6ETX0 1-298) |
|  | no binding | no binding | binds | OsbZIP20 (pGADT7-OsbZIP20) (from UniProt Q6ETX0 1-298) |
